# Experimental data as given in PubChem BioAssay AID588590 (National Center for Advancing Translational Sciences (NCATS), 2011).
# By UniProt entry, the sequences of proteins in these tests, tags left out. Where a name states a change or a piece, a line headed by the entry shows the natural chain unless it says otherwise.
# UniProt Q9UNA4: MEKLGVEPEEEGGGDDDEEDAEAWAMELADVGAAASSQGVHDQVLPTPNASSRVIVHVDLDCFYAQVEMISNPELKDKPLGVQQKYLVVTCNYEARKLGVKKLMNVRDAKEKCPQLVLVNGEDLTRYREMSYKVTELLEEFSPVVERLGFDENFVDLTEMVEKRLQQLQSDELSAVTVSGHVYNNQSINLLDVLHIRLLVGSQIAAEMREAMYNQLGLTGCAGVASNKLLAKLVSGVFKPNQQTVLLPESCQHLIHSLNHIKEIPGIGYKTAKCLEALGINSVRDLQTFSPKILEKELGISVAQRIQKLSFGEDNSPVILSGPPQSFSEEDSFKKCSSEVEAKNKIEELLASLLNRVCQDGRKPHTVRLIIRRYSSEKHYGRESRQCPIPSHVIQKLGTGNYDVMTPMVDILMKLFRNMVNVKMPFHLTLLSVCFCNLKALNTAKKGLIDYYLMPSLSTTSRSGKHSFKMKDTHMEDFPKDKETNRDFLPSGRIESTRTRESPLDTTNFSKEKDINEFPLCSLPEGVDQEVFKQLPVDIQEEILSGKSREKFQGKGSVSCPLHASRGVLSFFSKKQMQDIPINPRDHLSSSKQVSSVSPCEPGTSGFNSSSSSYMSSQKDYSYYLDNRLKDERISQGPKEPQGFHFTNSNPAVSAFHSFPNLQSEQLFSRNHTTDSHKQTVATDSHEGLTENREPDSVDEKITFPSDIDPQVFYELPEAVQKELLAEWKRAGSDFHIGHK
# Where “and” joins values, the source holds several entries; their conditions need not be identical. Equal values may be shown once. Out of some 390,000 compounds screened, about 4,000 (1%) were called active. The shares of active, inactive and inconclusive entries below differ from those in the screen. Calls follow the shape of the dose curve; as a rule, active = well fitted inhibition curve with a large enough effect; inconclusive = small, poorly fitted or top-dose-only effect, or another doubt; inactive = no such curve, though single readings can be large or run the other way. A potency beside an inconclusive call is a rough fit, not a confirmed value.
# Biological target: DNA polymerase iota (Homo sapiens) (UniProt Q9UNA4)
# Experiment: qHTS for Inhibitors of Polymerase Iota
# Conditions: Pol iota fluorescent replication assay, 10 min; series mostly up to 115 µM
# How it was run: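 Pol iota at 10 nM preincubated 15 min with compounds at room temperature; reaction started with fluorescent substrate, 50 nM final. Fluorescence read kinetically at 0 and 10 min; buffer-only wells as negative control.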
# Potency is read from the fitted curve at half-maximal effect.
row,SMILES,Potency
1,O=C(Cc1cccc(NC(=O)C2CCCN(C(=O)C3CC3)C2)c1)Nc1cccc(C(=O)N2CCOCC2)c1 (centres undefined),"inconclusive: 70.8 µM [inhibitor, partial curve, poor fit]"
2,COC(=O)c1ccc(C(=O)OC)c(NC(=O)CSc2n[nH]c(N)n2)c1,inactive
3,Cc1[nH][nH]c(=O)c1N=Nc1ccc(S(N)(=O)=O)cc1,"inconclusive: 28.2 µM [inhibitor, partial curve, poor fit]"
4,COc1ccc(/C=C/C(=O)O)cc1S(=O)(=O)N1CCC(Cc2ccccc2)CC1,"inconclusive: 79.4 µM [inhibitor, partial curve]"
5,CC(OC(=O)c1ccc2ccccc2c1)C(=O)N(C)Cc1ccccc1 (centres undefined),inactive
6,CC1CCCCN1CC(=O)Nc1sc2c(c1C#N)CCC2 (centres undefined),"inconclusive: 39.8 µM [inhibitor, partial curve, poor fit]"
7,O=C(COc1ccccc1)NC1C(=O)N2C(C(=O)O)=C(Cl)CSC12 (centres undefined),"inconclusive: 15.8 µM [inhibitor, full curve]"
8,CC(=O)C1=C(C)NC(=O)NC1c1cccs1 (centres undefined),"inconclusive: 89.1 µM [inhibitor, partial curve]"
9,Cc1ccc(-n2nc(C(=O)Nc3ccc(C)c(F)c3)c3c4ccccc4n(C)c3c2=O)cc1,inactive
10,O=C(CSc1ccc2c(c1)OCCO2)NCc1ccco1,"inconclusive: 56.2 µM [inhibitor, partial curve, poor fit]"
11,COc1cc(C(=O)NC(=S)Nc2cccc3nc(C)ccc23)cc(OC)c1OC,"inconclusive: 15.8 µM [inhibitor, full curve, poor fit]"
12,CCOc1ccc(NS(=O)(=O)c2ccc3[nH]c(=O)cc(C(=O)O)c3c2)cc1,"inconclusive: 79.4 µM [inhibitor, partial curve, poor fit]"
13,Cc1ccc(-n2nc(CO)c(C(=O)NCCCc3ccccc3)n2)cc1,inactive
14,Cc1nnc(SCC2=C(C(=O)O)N3C(=O)C(NC(=O)Cc4ccccc4)C3SC2)s1 (centres undefined),"inconclusive: 31.6 µM [inhibitor, single point]"
15,Cc1nc2sc(C(N)=O)c(N)c2c(-c2ccc(Br)cc2)c1C(=O)Nc1ccc(Cl)cc1,"inconclusive: 56.2 µM [inhibitor, partial curve, poor fit]"
16,Cc1cccc(NC(=O)c2ccc(-c3nc(CSc4ccccc4)c(C)o3)cc2)c1C,inactive
17,CC(=O)c1cccc(NC(=O)COC(=O)c2ccc(S(C)(=O)=O)c([N+](=O)[O-])c2)c1,"inconclusive: 12.6 µM [inhibitor, partial curve, poor fit] and inconclusive: 25.1 µM [inhibitor, full curve, poor fit]"
18,COc1ccccc1CNC(=O)c1cnc2sc(N3CCCCCC3)nn2c1=O,inactive
19,CCCN(CC(=O)Nc1ccccc1C)C(=O)c1ccc(-c2ccc([N+](=O)[O-])cc2)o1,"inconclusive: 31.6 µM [inhibitor, full curve, poor fit]"
20,Cc1ccc(CN2C(=O)C(C)Nc3ncnc(N4CCN(c5ccccn5)CC4)c32)cc1 (centres undefined),"inconclusive: 11.2 µM [inhibitor, single point]"
21,C(=N\Nc1nc(-c2ccccc2)cs1)/c1cccnc1,inactive
22,Cc1ccc2oc(-c3cc(NC(=O)c4ccco4)ccc3Cl)nc2c1,"inconclusive: 89.1 µM [inhibitor, partial curve, poor fit]"

row,SMILES,Potency
1,CSc1ncc(C(=O)Nc2ccc(F)cc2F)c(-c2ccccc2)n1,"inconclusive: 89.1 µM [inhibitor, single point]"
2,Cc1cc(NC(=O)COC(=O)CSc2nc3cc(Cl)ccc3n2Cc2ccccc2)no1,"inconclusive: 39.8 µM [inhibitor, single point]"
3,CCOc1ccc(OCC)c(NC(=O)CCC(=O)N2CCOc3ccccc32)c1,inactive
4,N#Cc1c(N(CCO)CCO)nc(N)c2c(N)nc3c(c12)CC(=O)N3CC1CCCO1 (centres undefined),"inconclusive: 39.8 µM [inhibitor, single point]"
5,O=C(c1cc2nc(C3CC3)cc(C(F)F)n2n1)N1CCOCC1,"inconclusive: 28.2 µM [inhibitor, full curve]"
6,Cc1ccccc1C(=O)Nc1ccc2c(C#N)c3nc4ccccc4nc3n2c1,inactive
7,O=C1C(=O)C(c2ccccc2)C(=O)C1c1ccccc1 (centres undefined),"inconclusive: 39.8 µM [inhibitor, partial curve, poor fit]"
8,CC1(C)CC(=O)C2=C(C1)c1c(ccc3ccccc13)NC2c1ccc(OCC(=O)O)cc1 (centres undefined),inactive
9,Cn1c(N)c(C(=O)COC(=O)c2ncc(Cl)c(Cl)c2Cl)c(=O)n(C)c1=O,"inconclusive: 89.1 µM [inhibitor, single point]"
10,COc1cccc(C(c2c(C)[nH]n(-c3ccccc3)c2=O)c2c(C)[nH]n(-c3ccccc3)c2=O)c1OC,active: 1.26 µM
11,CCOC(=O)c1ccc(N2C(=O)c3n[nH]c(-c4ccco4)c3C2c2ccc(O)c(OC)c2)cc1 (centres undefined),"inconclusive: 56.2 µM [inhibitor, partial curve, poor fit]"
12,O=C(/C=C/Nc1ccc(Oc2ccccc2Cl)cc1)c1ccco1,"inconclusive: 0.631 µM [inhibitor, full curve, poor fit]"
13,CC1CCCCC1NC(=O)CSc1nc2ccccc2c(=O)n1Cc1ccco1 (centres undefined),"inconclusive: 89.1 µM [inhibitor, single point]"
14,CCCCN(CCCC)C(=O)c1sc2nc(N3CCOCC3)c3c(c2c1N)CCCC3,"inconclusive: 14.1 µM [inhibitor, partial curve, poor fit]"
15,C(=C\c1ccccc1)/CSc1nnc(-c2ccccc2)n1Cc1ccco1,"inconclusive: 22.4 µM [inhibitor, partial curve, poor fit]"
16,Cc1ccc(N)cc1O,"inconclusive: 31.6 µM [inhibitor, single point]"
17,Cc1ccc(-c2nc3nc(C)cc(Nc4ccccc4O)n3n2)cc1,"inconclusive: 89.1 µM [inhibitor, single point]"
18,O=C(O)CNC(=O)CC1S/C(=N/N=C2/NC(=O)CS2)NC1=O (centres undefined),"inconclusive: 22.4 µM [inhibitor, single point]"
19,Cc1cc(Br)ccc1SCC(=O)OCC(=O)N1CCN(C(=O)c2ccco2)CC1,"inconclusive: 39.8 µM [inhibitor, single point]"
20,O=C(NCCOCCn1c(=O)oc2ccccc21)Nc1ccc(Cl)cc1,"inconclusive: 89.1 µM [inhibitor, single point]"
21,COc1ccc(Cl)c(Cn2c(NCc3ccco3)nc3c2c(=O)n(C)c(=O)n3C)c1,"inconclusive: 12.6 µM [inhibitor, full curve, poor fit]"
22,CCCc1ccc(C(=O)NNc2cc(Cl)ccc2Cl)cc1,inactive

row,SMILES,Potency
1,O=C(N/N=C/C(Cl)=C/c1ccccc1)c1cnccn1,"inconclusive: 39.8 µM [inhibitor, single point]"
2,COc1ccc(N2CC(NC(=O)CCc3ccccc3)CC2=O)cc1OC (centres undefined),inactive
3,Cc1ccc(-c2nnc3ccc(SCC(=O)NCc4ccco4)nn23)cc1,inactive
4,CCCn1nc2cc(C(=O)NCc3ccc(OC(F)(F)F)cc3)ccc2c1OCC,"inconclusive: 11.2 µM [inhibitor, partial curve]"
5,O=C(CSc1nnc(-c2ccc3c(c2)OCO3)o1)Nc1ncc(Cl)cc1Cl,"inconclusive: 63.1 µM [inhibitor, partial curve, poor fit]"
6,COc1ccc(C2c3c(n(C)c4ccccc34)C(=O)N2CC(=O)Nc2ccccc2F)cc1 (centres undefined),"inconclusive: 89.1 µM [inhibitor, single point]"
7,O=C(CC1N=C2c3ccccc3N=C(SCc3ccccc3F)N2C1=O)NCc1ccc2c(c1)OCO2 (centres undefined),inactive
8,O=C(O)c1ccc(Nc2nc(-c3cc4ccccc4oc3=O)cs2)cc1O,active: 22.4 µM
9,COc1ccc(S(=O)(=O)N2CCN(C(=O)C3COc4ccccc4O3)CC2)cc1 (centres undefined),active: 10 µM
10,O=C(NNc1ccccc1)Nc1ccccc1F,"inconclusive: 22.4 µM [inhibitor, full curve, poor fit]"
11,O=C(C1CC(c2ccc(F)cc2)=NO1)N1CCCCC1 (centres undefined),"inconclusive: 112 µM [inhibitor, partial curve, poor fit]"
12,OCCC#Cc1c(-c2ccsc2)sc2ccccc12,"inconclusive: 3.55 µM [inhibitor, full curve, poor fit]"
13,CCn1c(SCC(=O)N/N=C/C=C/c2ccco2)nnc1-c1ccccc1,active: 56.2 µM
14,COc1cccc(OC)c1OCCCOc1ccc(C)cc1Br,"inconclusive: 79.4 µM [inhibitor, partial curve, poor fit]"
15,O=C(Cc1ccc(NC(=O)N2CCSc3ncccc32)cc1)NCCc1ccccc1,inactive
16,CC1(C)CC(NCCN2CCN(C3=CC(=C(C#N)C#N)CC(C)(C)C3)CC2)=CC(=C(C#N)C#N)C1,inactive
17,CC1=CC(C)(C)N(C(=O)CSc2nncn2C)c2ccccc21,"inconclusive: 79.4 µM [inhibitor, partial curve]"
18,CCOc1cc(C(c2c(C)[nH][nH]c2=O)c2c(C)[nH][nH]c2=O)ccc1OCc1ccc([N+](=O)[O-])cc1,"inconclusive: 3.16 µM [inhibitor, full curve, poor fit]"
19,CC1CC(C)(C)NC(=S)S1 (centres undefined),"inconclusive: 39.8 µM [inhibitor, single point]"
20,O=C(O)c1cc(N/N=C/C=C/c2ccccc2[N+](=O)[O-])ccc1Cl,"inconclusive: 22.4 µM [inhibitor, partial curve, poor fit]"
